# The supplement of paper PMC10338343
# ± gives the standard deviation. Only a part is listed here, and it is no random draw. Many of these values have a large error.
# Tested on: EfPiwi piRISC loaded with piRNA #1 (26 nt)
# Assay: pre-steady-state target cleavage rate (min^-1); guide: piRNA #1 5'p-UGAGGUAGUAGGUUGUAUAGUAUCCA; MIWI and MILI are mouse PIWI proteins and EfPiwi is from a freshwater sponge; tags in brackets are library labels; higher = faster piRNA-guided slicing of the target
# Conditions: auxiliary factor: 500 nM Ephydatia muelleri Gtsf1
# How it was run: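 In this Cleave-'n-Seq assay, uncleaved targets were sequenced and normalised to depth and to weakly complementary targets. They came from a transcribed, DNA-blocked target RNA library […] mixed with 1 nM active affinity-purified piRISC carrying one synthetic guide, with or without 500 nM GTSF1 partner protein, in HEPES–potassium acetate buffer at 33 °C for 0–8 or 0–960 min. After three trials were pooled and k3 was capped at 0.0001 min^-1, the pre-steady-state cleavage rate was obtained from a burst-and-steady-state fit.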
row,Sequence,pre-steady-state target cleavage rate
1,GGAGACCUUACUAUACAACCUACGUACCUCA,0.00274 ± 0.006
2,GGAGUGGAUACUAUACAACCUUCUACCUCA,0.0116 ± 0.0048
3,GGAGACGAUAGUAUACAACCUACUACCUCA,0.00758 ± 0.0036
4,GGAGUGGAUACUAUACAACCUACUCCCUCA,0.00426 ± 0.0017
5,GGAGACCUUACUAAACAACCAACUACCUCA,0.000342 ± 0.017
6,GGAGAGGAUACUAUACAACCUACUACCACA,0.00641 ± 0.0021
7,GGAGACCAUACUUUACAACCUACUUCCUCA,0.00404 ± 0.0039
8,GGAGACCUUACUAUACAACCUACUAACCUCA,0.00393 ± 0.0038
9,GGAGACCUUACUAUAGAACCUACUACCUGA,0.000888 ± 0.0038
10,GGAGACCUAUCUAUACAACCAACUUCCUCA,0.00147 ± 0.0058
11,GGAGACCUAUGAUAUGUACCUACUACCCCA,0.000329 ± 0.016
12,GGAGACGAUACUAACAACCUACUACCUCA,0.00704 ± 0.0045
13,GGAGUGGAUACUUUACAACCUACUACGUCA,0.00202 ± 0.0021
14,GGAGAGGCAUACUAUACAACCUACUACCUCA,0.0477 ± 0.017
15,GGAGACGAUUCUAUAGAACCUACUACCUCA,0.00226 ± 0.0018
16,GGAGACCUAUCUAUACAUCCUACUAGCUCA,0.0025 ± 0.0038

# Individual results from the entries so far:
# Value of GGAGAGGAUACUAUACAACCUACUACCACA under pre-steady-state target cleavage rate: 0.00641 ± 0.0021
# Value of GGAGUGGAUACUAUACAACCUACUCCCUCA under pre-steady-state target cleavage rate: 0.00426 ± 0.0017
